Experimental data published in patent US4374139A, “Levorotatory N-substituted acylmorphinans useful as analgesic agents” (priority 1981, dated 1983).
Read-outs that look alike come from different tables or passages of the source.

Key:
[1] = tested on: mice exposed to radiant heat stimulus on the tail; assay: animal or person; type: in vivo, male mice (Charles River, CF-1/CD); settings: Mus musculus
Source text: (§1) The ED50 was the dose which reduced the total number of writhes by 50%. […] A modification of the tail flick test described by Dewey and Harris (in: S. Ehrenpreis and A. Neidle (eds.), Methods in Narcotics Research, Marcel Dekker, Inc., New York, 1975, pp. 101-108) was used to measure the tail flick reaction times following oral or subcutaneous administration of the compounds of formula I of the invention.
More specifically, groups of 10 male mice (Charles River, CF-1/CD, 18-22 gm) were placed in individual stainless steel, ventilated, cylindrical restrainers with their tails protruding through a hole at one end. The restraining tubes were positioned on a sliding platform so that each mouse, in turn, could be exposed to a high intensity lamp. The rays from the lamp were focused by means of a parabolic reflector directly on the tail. […] The reaction time of each mouse was determined before and again 30,60,90 and 120 minutes after treatment. […]
Doses were calculated as the salts of all the compounds. […] For each test compound, ED 50 values were calculated separately for each test. […] For any given test, the average tail flick latency score of the vehicle control group was calculated and a latency value, Z, was derived from this, as follows: [formula] where the cutoff time was 10 seconds. […]

[2] = tested on: mice exposed to intra-abdominally induced chemical pain; assay: animal or person; type: in vivo; settings: Mus musculus
Procedure: as §1
Doses were calculated as the salts of all the compounds. Injection volume was 0.1 ml/10 g body weight. For each test compound, ED 50 values were calculated separately for each test. Log dose regression analysis and Fieller's Theorem were used to compute the ED 50 and its 95 percent confidence limits. The analysis was performed on the tail flick latency scores of all mice that were treated with a test compound. For any given test, the average tail flick latency score of the vehicle control group was calculated and a latency value, Z, was derived from this, as follows: [formula] where the cutoff time was 10 seconds. […] The value of Z was entered as an interpolate into the regression analysis so that an ED50, defined as the dose that increased tail flick latencies by 50 percent of the maximum possible response, could be computed.

**Q.** How did the ED50 ([1]; po, read-out: ED50 Tail Flick Oral) turn out when CN1CC[C@]23c4c5ccc(O)c4O[C@H]2[C@@H](O)C=C[C@H]3[C@H]1C5.O=S(=O)(O)O [Morphine Sulfate, reference compound] was run?
**A.** The ED50 was 26.8 mg/kg.

**Q.** And the ED50 ([1]; sc, read-out: ED50 Tail Flick Subcu.)?
**A.** Its ED50 is 6 mg/kg.

**Q.** What about the ED50 ([2]; po, read-out: ED50 Writhing Oral) of the same compound?
**A.** The ED50 was 2.2 mg/kg.

**Q.** What about the ED50 ([2]; sc, read-out: ED50 Writhing Subcu.) of the same compound?
**A.** Its ED50 is 0.26 mg/kg.
